{"source": "patent US9993491B2", "about": "“Guanine riboswitch binding compounds and their use as antibiotics” (SOCPRA—SCIENCES ET GENIE S.E.C., priority 2009, dated 2018)", "system": "S. aureus strain ATCC 29213", "type": "cell-based", "conditions": "sub-inhibitory concentrations, MIC determined every 5 passages up to 30", "note": "Some entries share one result that the patent states for a list of compounds."}
{"compound": "O=C(O)c1cn(C2CC2)c2cc(N3CCNCC3)c(F)cc2c1=O", "note": "[ciprofloxacin, reference compound]", "values": [{"measurement": "Passages until resistance is selected", "result": "≤ 5", "unit": "passages"}]}
{"compound": "CO[C@H]1/C=C/O[C@@]2(C)Oc3c(C)c(O)c4c(O)c(c(/C=N/N5CCN(C)CC5)c(O)c4c3C2=O)NC(=O)/C(C)=C\\C=C\\[C@H](C)[C@H](O)[C@@H](C)[C@@H](O)[C@@H](C)[C@H](OC(C)=O)[C@@H]1C", "note": "[rifampicin]", "values": [{"measurement": "Passages until resistance is selected", "result": "≤ 5", "unit": "passages"}]}
